These are yes or no findings as the source states them, for the method shown. Binding seen in cells or lysates may run through a third protein. Some binding calls cover weakened binding; strength is not graded here. For some of these results: Sequences can lack the tags named with a protein.
Legend:
[1] = target: dGOLPH3 (Drosophila melanogaster (endogenous in testes)) (UniProt Q9VQ93); assay: proximity ligation; Duolink PLA on formaldehyde-fixed larval testes (premeiotic and dividing spermatocytes); one primary antibody omitted as negative control
[2] = target: dGOLPH3 (Drosophila melanogaster (endogenous in testes)) (UniProt Q9VQ93); assay: co-IP; extract of 400 adult testes expressing dAtx2-HA, rabbit anti-GOLPH3 antibody (pre-immune serum as control) and Protein A-Agarose; blotted for dGOLPH3, dFmr1 and HA
GST-dGOLPH3 (Drosophila) = GST-dGOLPH3 (Drosophila) (UniProt Q9VQ93); assay: pull-down; GST or GST-dGOLPH3 bound to glutathione-Sepharose 4B beads, incubated with testis lysate at 4 °C for 2 h; wash buffer 25 mM Tris-HCl pH 7.4, 150 mM NaCl, 1% NP-40, 1 mM EDTA; Western blot; only the target purified

Chains of the proteins cited; added tags and fusions are not shown.
UniProt Q9VQ93: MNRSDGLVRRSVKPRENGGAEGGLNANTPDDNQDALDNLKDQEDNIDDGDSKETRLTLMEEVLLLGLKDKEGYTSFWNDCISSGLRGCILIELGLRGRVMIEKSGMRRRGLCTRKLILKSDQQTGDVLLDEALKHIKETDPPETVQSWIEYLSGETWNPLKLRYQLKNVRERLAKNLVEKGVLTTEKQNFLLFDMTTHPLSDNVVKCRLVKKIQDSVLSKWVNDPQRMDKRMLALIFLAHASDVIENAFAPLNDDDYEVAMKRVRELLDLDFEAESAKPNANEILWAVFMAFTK
UniProt O18332: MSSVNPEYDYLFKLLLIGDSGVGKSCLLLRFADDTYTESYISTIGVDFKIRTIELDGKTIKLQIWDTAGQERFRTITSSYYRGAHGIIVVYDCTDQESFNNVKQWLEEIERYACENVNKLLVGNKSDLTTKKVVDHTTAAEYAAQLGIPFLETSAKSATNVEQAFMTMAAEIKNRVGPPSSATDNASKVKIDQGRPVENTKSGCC

| binding [1] | binding [2] | binding (GST-dGOLPH3 (Drosophila)) | Molecule |
| --- | --- | --- | --- |
| binds |  |  | Rab1 (from UniProt O18332 1-205) |
|  | binds | binds | dAtx2-HA (protein, UniProt Q8SWR8 1-1084) MNNNSKRKTRPTGGGASGGISRYNSNDNSLRPTNNKAGAGGGNGGAAVRPSAQGVYNNTFFMHSATALVGSVVEVRLRSGNIYEGVFRTFSGNFDIALELPACIKSKNLPEEGKVPKHIIFPADTVVTIVAKDFDSQYATAGAFQTDGAISDKCNGARPDEKELEPWDSGANGDIDIELDSAANGWDPNEMFRKNENTFGVTSTFDDSLASYTVPLDKGDSLEFKEAEAKAEKLAAEIENNPTCRDRLDLENGDEEALFAAVERPSTEQDQRGDRGDRERNDRDREREERDRDRDRDRGNKPRGAGDFQLRETMSSDRYITKQTRSITGPQLSHVGMSSQGSGRDRDTRGDGSMMMQSGGGSGQGGSTQSTAALMLAGGLKGVGPAPSANASADSSSKYSGGSMVKRKTVPQGGKVMRNNVPTGGSNVSVSQGGNGNSVGQNKGGYQPSMGMPSQYSYQGNSQIMHGSSQYRNQSHMGGANKLNGDSNANTNKPLPQRQMRQYQGSQSNSSLNYGGEPQSLGKPVHGSHGGHPGQNSNSPPLQTAGPQQQQQQQQQQQQQQQQQQPPQQQQHQNIQPQGQNTQPARQVRTRDNQMQELRQFGQDFQLAPSNTSPPQQQQQQQQQQQQHQVQQQQQRALQQSASPPQQQQQQQQQQQHVVLHQVPQTHLHQAALSQPHYVPQQQPQQAPLPQQQHVPHHMQQKAQQQQLVETQHQHVQKQHQSQPQVQQPPPQLLQDPSQQPLPIYHTMPPPQTSPVVVTSPVLLEQPPPQPMPVVQQQQTQQLATPKPEVSPAPPSSNTTTPTGIASTPTAGVIASAGSEKTTPAAPTPTSNSATVPTGTAATAGGATGTTPVVKKHVLNPSAKPFTPRGPSTPNPSRPHTPQTPVPMTNIYTTTGGHVPPAANQPIYVMQPQHPFPPQTHPQAGQPPRLRRSNYPPMAASQMHVSASAATGQPLITAGPIPQFIQYGHAPHQQQFQSHTYAPMQMRVYPDQPQQLQFMTQTPQSTTPSPGQPHQQFHPPPQPSPAGGGPQPAFTPPTQAATYQLMCVHPQSLLANHYFPPPTPQHPQQNQQQYQIVMQQHQPQ |
|  |  | binds | Shibire (protein, UniProt P27619 1-877) MDSLITIVNKLQDAFTSLGVHMQLDLPQIAVVGGQSAGKSSVLENFVGKDFLPRGSGIVTRRPLILQLINGVTEYGEFLHIKGKKFSSFDEIRKEIEDETDRVTGSNKGISNIPINLRVYSPHVLNLTLIDLPGLTKVAIGDQPVDIEQQIKQMIFQFIRKETCLILAVTPANTDLANSDALKLAKEVDPQGVRTIGVITKLDLMDEGTDARDILENKLLPLRRGYIGVVNRSQKDIEGRKDIHQALAAERKFFLSHPSYRHMADRLGTPYLQRVLNQQLTNHIRDTLPGLRDKLQKQMLTLEKEVEEFKHFQPGDASIKTKAMLQMIQQLQSDFERTIEGSGSALVNTNELSGGAKINRIFHERLRFEIVKMACDEKELRREISFAIRNIHGIRVGLFTPDMAFEAIVKRQIALLKEPVIKCVDLVVQELSVVVRMCTAKMSRYPRLREETERIITTHVRQREHSCKEQILLLIDFELAYMNTNHEDFIGFANAQNKSENANKTGTRQLGNQVIRKGHMVIQNLGIMKGGSRPYWFVLTSESISWYKDEDEKEKKFMLPLDGLKLRDIEQGFMSMSRRVTFALFSPDGRNVYKDYKQLELSCETVEDVESWKASFLRAGVYPEKQETQENGDESASEESSSDPQLERQVETIRNLVDSYMKIVTKTTRDMVPKAIMMLIINNAKDFINGELLAHLYASGDQAQMMEESAESATRREEMLRMYRACKDALQIIGDVSMATVSSPLPPPVKNDWLPSGLDNPRLSPPSPGGVRGKPGPPAQSSLGGRNPPLPPSTGRPAPAIPNRPGGGAPPLPGGRPGGSLPPPMLPSRVSGAVGGAIVQQSGANRYVPESMRGQVNQAVGQAAINELSNAFSSRFK |
|  |  | binds | αCOP (protein, UniProt Q9W0B8 1-1234) MLTNFESKSARVKGLSFHPKRPWILVSLHSGVIQLWDYRMHTLLEKFDEHDGPVRGVAFHQQMPLFVSGGDDYKIKVWNYKQRRCIFTLLAHLDYVRTVAFHHEYPWILSASDDQTIRIWNWQSRNCICVLTGHNHYVMCAQFHPTEDQIVSASLDQTVRVWDISGLRKKNVAPGPGGLDDHLKGHPGATDLFGQADAVVKHVLEGHDRGVNWASFHPTLPLIVSGADDRLVKLWRMNEYKAWEVDTCRGHYNNVSSVLFHPRQDLILSNGEDRSIRVWDMTKRQCLFTFRRDNERFWILTAHPTLNLFAAGHDGGMVVFKLERERPAYAVHGNILYYVKERFLRKLDFTTTKDTVVMQLRPGKSPVYSMSYNPALNAVLICTRTNNLENSTYDLCQIPKDTESQSESDSKRSSGITAIWVARNRFAVLDRNQQLVIKNFKNEVTKKLPTFCEEIFYAGTGMLLIRDPEFVTLYEVQRLVSVGSIKLAKCRYVVWSPDMSLVALLCKHSVTICDRRLQYLCTVQENCRVKSGAWDESGVFIYTTSNHIKYAITNGDHGIIRTLDLPIYLTRVKGNQVFCLDRECRTRVLHIDPTEYKFKLALIQRKYDEVLHMVRNARLVGQSIIAYLQQKGYPEVALHFVKDEKTRFGLALECGNIEIALEAAKALDDKDCWDRLGQSALLQGNHQVVEMCYQRTKNFDKLSFLYLITGNLEKLKKMNKIAEIRKDVSAQYQGALLLGDVKERVNILKNCGQLSLAYLTAATHGFDELTESLGESITSQGNSLPEVNPNAQLLQPPVPIQQLETNWPLLSVSKGFFEGAMVTRAGSSATARQALNINADAALLDEHNGGGDGWGADADLGLDEDGDDEMHDALSNDGDGGAGGEEGAGWDVGDDDLVVPEELASKIKASALDSNYYAAPNKGLSPAQQWANNSPLVLDHVKAGSFETAFRLLHDQLGVVNFQPFKTLFLQNYACSRTSYTANPNLQSLSGYPLRNYSETNIKLQRPAVGIKLNDLVARLQAGYQLTTSGKFSEAVEKFHSILISIPLLVVDTKLDAAEAQQLLRICAEYIVGLKMETVRKGMPKSTLEEQKRLCEMAAYFTHCKLQPVHQILTLRTALNMFFKLKNYKTAASFARRLLELAPRPDVAQQVRKILQACEVNPVDEHQLQYEEFNPFTICGISWKPLYRGKPEVTCPFCSSSFDPQFKGNLCTVCEVSQIGKDSIGLRISNLQFR |
|  |  | binds | SH3PX1 (protein, UniProt Q9NCC3 1-565) MTSYVRAMYDFTGEPGSSELSIATGDVLSVTRSDVGEGWWEGKNARGQIGLFPAAYVEVMSAAEAQKLSASGATSVPQVPDPFASPPLPRYDQTADDDGSNWDDEDDWSDDNDTYSEIGPGGQKSAGQSARAGGLSHSTSDYDNKHLPIAPNDDTQSLASVAGGTGAAGTVKKGMFAKSSDSYILGLSSTKEKIPECEMAYITQVEDSIYQWTQNHSPYSVVVASPKKESKFKGMKTFIAYQLTPSFNNISVSRRYKHFDWLHERLVDKFCLIPVPPLPDKQISGRYEEQFVEHRRVQLQEFVDWVCRHPVISKCEVWYHFLTCRDEKIWKSGKRKAERDPYMGVNYCLAISPPDKNLLHSKVDAQVELGTQFIHSMDVAVRNLNNISNDMAKRSMSQSKKEFQRIGDGLSDLAKALAIDERRAPTRNAVPLSESVGRIGGIFIGIGQAFGDQPKHDWIPLSDRLHIYRGVLNCFPDIFSTHKGAIQKRKDCEKLAGEGRMNNPQLHDVNRRTDVVSYTVLAELTHFKSERDTHLKHTLKNFIAEQIKFYQGVVARLQEASRQIE |
|  |  | binds | δCOP-HA (protein, UniProt Q9W555 1-532) MVLIAAAVCTKNGKVILSRQFVEMTKARIEGLLAAFPKLMTAGKQHTYVETDSVRYVYQPMEKLYMLLITTKASNILEDLETLRLFSKVIPEYSHSLDEKEIVENAFNLIFAFDEIVALGYRESVNLAQIKTFVEMDSHEEKVYQAVRQTQERDARQKMREKAKELQRQRMEASKRGGPSLGGIGSRSGGFSADGIGSSGVSSSSGASSANTGITSIDVDTKSKAAASKPASRNALKLGGKSKDVDSFVDQLKNEGEKIANLAPAAPAGGSSAAASASAAAKAAIASDIHKESVHLKIEDKLVVRLGRDGGVQQFENSGLLTLRITDEAYGRILLKLSPNHTQGLQLQTHPNVDKELFKSRTTIGLKNLGKPFPLNTDVGVLKWRFVSQDESAVPLTINCWPSDNGEGGCDVNIEYELEAQQLELQDVAIVIPLPMNVQPSVAEYDGTYNYDSRKHVLQWHIPIIDAANKSGSMEFSCSASIPGDFFPLQVSFVSKTPYAGVVAQDVVQVDSEAAVKYSSESILFVEKYEIV |
